Substitutions are numbered along the chain they refer to. No constants are given. Whether binding was seen depends on the method and setting. In cells and extracts the contact can be indirect. Binding calls can cover weak binding; strength is not graded here. Tags and fused reporters may be left off the sequences shown.
How the values were obtained:
Assay in all cases: co-IP; GFP-WDR44 wild-type or variants transiently expressed in RPE1 WDR44 KO F4 cells for 48 h; GFP proteins immunoprecipitated from lysate, blots probed with GFP, RAB11 and VAPA antibodies
[1] = biological target: T1, GFP-tagged WDR44 G782C (human) (UniProt Q5JSH3)
T1 sequence: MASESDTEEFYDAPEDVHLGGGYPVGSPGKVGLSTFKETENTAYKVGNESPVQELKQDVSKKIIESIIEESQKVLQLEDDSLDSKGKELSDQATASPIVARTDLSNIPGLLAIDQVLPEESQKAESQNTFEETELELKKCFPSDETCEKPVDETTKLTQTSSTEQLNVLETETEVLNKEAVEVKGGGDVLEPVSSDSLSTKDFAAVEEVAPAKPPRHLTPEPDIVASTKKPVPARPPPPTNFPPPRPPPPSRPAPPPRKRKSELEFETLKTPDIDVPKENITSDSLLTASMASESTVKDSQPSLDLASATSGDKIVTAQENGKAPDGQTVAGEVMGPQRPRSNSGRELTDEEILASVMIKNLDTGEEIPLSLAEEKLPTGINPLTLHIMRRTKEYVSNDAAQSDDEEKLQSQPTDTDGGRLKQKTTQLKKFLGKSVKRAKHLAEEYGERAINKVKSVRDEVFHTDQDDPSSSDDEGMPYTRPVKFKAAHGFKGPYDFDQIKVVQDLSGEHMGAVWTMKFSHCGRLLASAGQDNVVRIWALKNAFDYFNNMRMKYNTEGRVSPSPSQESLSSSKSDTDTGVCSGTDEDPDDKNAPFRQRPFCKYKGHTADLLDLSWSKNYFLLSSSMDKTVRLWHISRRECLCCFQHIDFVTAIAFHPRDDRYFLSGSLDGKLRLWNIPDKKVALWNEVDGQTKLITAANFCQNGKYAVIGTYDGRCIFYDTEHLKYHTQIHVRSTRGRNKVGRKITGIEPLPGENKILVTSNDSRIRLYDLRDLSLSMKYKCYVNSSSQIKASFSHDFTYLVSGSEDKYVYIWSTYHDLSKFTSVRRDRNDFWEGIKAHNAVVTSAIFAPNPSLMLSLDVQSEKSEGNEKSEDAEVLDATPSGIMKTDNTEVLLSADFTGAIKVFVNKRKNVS

[2] = biological target: T2, GFP-tagged WDR44 N840S (human) (UniProt Q5JSH3)
T2 sequence: T1 sequence with C782G, N840S

[3] = biological target: T3, GFP-tagged WDR44 L668S (human) (UniProt Q5JSH3)
T3 sequence: T1 sequence with L668S, C782G

Measured: binding

Endogenous RAB11
binds: all assays above

From paper PMC10774338
